# Test results: patent US20260207760A1, “COMBINATIONS OF CD33 ANTIBODY DRUG CONJUGATE WITH CHEMOTHERAPEUTIC AGENTS” (Glykos Biomedical Oy, priority 2022, published 2026)
# At least one compound was matched to its structure with a doubt left.
# Test system: MOLM-13 cells
# Assay: MOLM-13 cell mouse xenograft efficacy study
smiles,measurement,setting,value
CC1(C)CCC(CN2CCN(c3ccc(C(=O)NS(=O)(=O)c4ccc(NCC5CCOCC5)c([N+](=O)[O-])c4)c(Oc4cnc5[nH]ccc5c4)c3)CC2)=C(c2ccc(Cl)cc2)C1 [Venetoclax],tumor growth versus control group,"all doses (LNAuM 0.1-3 mg/kg single dose; venetoclax 100 mg/kg, 10 daily doses)",inhibited tumor growth
same,outcome at study end,"day 54 after tumor inoculation, venetoclax 100 mg/kg, LNAuM 1 mg/kg, combination",all animals were sacrificed due to tumor growth
